Results as given in article PMC9283393.
No constants are given. Whether binding was seen depends on the method and setting. In cells and extracts the contact can be indirect. Some entries that bind do so weakly or less than the wild type.

Sequences of proteins named here, by UniProt entry; tags and fusion partners are left off. A change or cut given only in a name is not applied to a line headed by its entry. A line that says so, or that is headed by a name, gives the form on record, which may keep a tag or linker. Residues count along the entry.
UniProt O14964: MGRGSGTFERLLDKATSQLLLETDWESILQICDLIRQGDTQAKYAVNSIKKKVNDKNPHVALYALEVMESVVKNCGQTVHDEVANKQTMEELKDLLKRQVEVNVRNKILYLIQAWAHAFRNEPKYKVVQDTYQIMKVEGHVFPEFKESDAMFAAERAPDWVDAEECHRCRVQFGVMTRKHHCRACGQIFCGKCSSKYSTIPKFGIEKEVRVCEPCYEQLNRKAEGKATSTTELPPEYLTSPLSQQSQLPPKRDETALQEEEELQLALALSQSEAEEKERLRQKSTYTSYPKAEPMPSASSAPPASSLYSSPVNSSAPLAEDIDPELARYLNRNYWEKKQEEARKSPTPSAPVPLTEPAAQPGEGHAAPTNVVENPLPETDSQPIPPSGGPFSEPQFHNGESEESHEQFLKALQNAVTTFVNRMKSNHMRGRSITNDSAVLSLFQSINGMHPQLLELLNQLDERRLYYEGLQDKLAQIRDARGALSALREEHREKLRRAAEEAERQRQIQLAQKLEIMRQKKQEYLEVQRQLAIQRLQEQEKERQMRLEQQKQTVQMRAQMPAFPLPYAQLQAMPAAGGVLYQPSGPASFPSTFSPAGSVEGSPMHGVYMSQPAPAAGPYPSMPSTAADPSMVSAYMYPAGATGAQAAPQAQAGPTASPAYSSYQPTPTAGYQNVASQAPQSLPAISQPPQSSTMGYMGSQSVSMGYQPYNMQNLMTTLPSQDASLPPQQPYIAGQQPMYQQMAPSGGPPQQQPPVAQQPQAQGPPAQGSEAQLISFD
Flag-tagged HRS (a.a. 275–777), lacking the UIM: residues 275-777 of O14964
UniProt Q9NZQ7, residues 19-290: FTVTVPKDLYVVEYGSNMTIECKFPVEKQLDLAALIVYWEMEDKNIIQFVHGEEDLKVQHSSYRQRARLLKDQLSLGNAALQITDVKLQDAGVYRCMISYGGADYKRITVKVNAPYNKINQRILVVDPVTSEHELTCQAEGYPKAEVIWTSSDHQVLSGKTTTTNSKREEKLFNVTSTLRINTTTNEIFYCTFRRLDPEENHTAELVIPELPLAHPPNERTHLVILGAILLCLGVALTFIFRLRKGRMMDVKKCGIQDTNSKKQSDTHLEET
UniProt Q92783: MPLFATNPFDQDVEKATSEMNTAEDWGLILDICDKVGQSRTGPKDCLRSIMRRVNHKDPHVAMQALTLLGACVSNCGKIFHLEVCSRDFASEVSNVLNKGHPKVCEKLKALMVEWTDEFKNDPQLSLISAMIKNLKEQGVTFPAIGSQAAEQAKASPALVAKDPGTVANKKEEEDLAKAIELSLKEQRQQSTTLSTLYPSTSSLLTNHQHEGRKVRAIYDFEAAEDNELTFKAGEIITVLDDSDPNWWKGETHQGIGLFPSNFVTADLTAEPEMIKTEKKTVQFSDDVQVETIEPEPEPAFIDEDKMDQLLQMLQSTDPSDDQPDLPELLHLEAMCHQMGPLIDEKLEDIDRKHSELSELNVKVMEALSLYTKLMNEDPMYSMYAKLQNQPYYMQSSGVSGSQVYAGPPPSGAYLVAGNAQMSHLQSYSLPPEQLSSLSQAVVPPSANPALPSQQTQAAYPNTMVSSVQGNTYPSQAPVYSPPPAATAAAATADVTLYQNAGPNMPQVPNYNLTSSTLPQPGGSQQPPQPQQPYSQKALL

Assays:
[1] = biological target: 3×Flag-tagged HRS S345A (phospho-deficient mutant) (UniProt O14964); test: co-IP; WM9 cells stably expressing Flag-tagged HRS^WT, HRS^S345A or HRS^S345D; anti-Flag immunoprecipitation from NP-40 lysate (25 mM HEPES-KOH pH 7.4, 100 mM KCl, 5 mM MgCl2, 1% NP-40), 2 hr at 4 °C; western blot
[2] = biological target: 3×Flag-tagged HRS S345D (phospho-mimetic mutant) (UniProt O14964); test: as above
[3] = biological target: 3×Flag-tagged wild-type HRS (hepatocyte growth factor-regulated tyrosine kinase substrate) (UniProt O14964); test: as above
[4] = biological target: Flag-tagged full-length HRS (domain mapping, Fig. 3j) (UniProt O14964); test: co-IP; cells expressing PD-L1 and Flag-tagged full-length HRS or fragments; anti-Flag immunoprecipitation; western blot of bound PD-L1
[5] = biological target: Flag-tagged HRS (a.a. 275–777), lacking the UIM (UniProt O14964); test: as above

## PD-L1 (endogenous in WM9 cells) (from UniProt Q9NZQ7 19-290)
[1]
  binding: binds
[2]
  binding: binds
[3]
  binding: binds

## PD-L1 (expressed together with Flag-HRS constructs, Fig. 3j) (from UniProt Q9NZQ7 19-290)
[4]
  binding: binds
[5]
  binding: binds

## STAM (endogenous in WM9 cells) (from UniProt Q92783 1-540)
[1]
  binding: binds
[2]
  binding: binds
[3]
  binding: binds
